{"source": "patent US20100310459A1", "about": "(THE REGENTS OF THE UNIVERSITY OF MICHIGAN, priority 2009, published 2010)", "assay": "general procedure: Fmoc solid-phase peptide synthesis", "conditions": "whole synthesis, reverse phase HPLC and mass spectrometry", "data": [{"substance": "SNFYMPL-GGGSK-FITC (SNFYMPLGGGSK; C-terminal FITC)", "values": [{"measurement": "final HPLC purity", "result": "minimum of 90% purity"}]}, {"substance": "NLMPYFS-GGGSK (NLMPYFSGGGSK)", "values": [{"measurement": "final HPLC purity", "result": "minimum of 90% purity"}]}]}
